# Source: US7524849B2, “5-arylpyrimidines as anticancer agents” (Wyeth Holdings Corporation, priority 2003, dated 2009)
# Assays:
# Format in all cases: cell-based
# S1 cells = assay: MTS cytotoxicity test with S1 cells; settings: Homo sapiens, read-out: IC50 (nM) S1
# Source text: (§1) Human cancer cell lines, unless otherwise noted, are obtained from the American Type Culture Collection (Rockville, Md.). […]
# (§2) The assay, which is sold in kit form by Promega (Madison, Wis.; CellTiter 96 AQueous Non-Radioactive Cell Proliferation Assay), is based on the conversion by viable cells, but not by dead cells, of the tetrazolium salt, MTS (3-(4,5-dimethylthiazol-2-yl)-5-(3-carboxymethoxyphenyl)-2-(4-sulphophenyl)-2H-tetrazolium, inner salt), into a water-soluble colored formazan which is detected by spectrophotometry. […] For the test procedure, cells are harvested by trypsinization, washed, counted and distributed to wells of 96-well flat-bottom microtiter plates at 1000 cells per well in 200 μL of medium. […]
# (§3) After three days of culture with test compounds (day 5 overall), the MTS assay is done on all wells of the experimental plates. The absorbance values of the quadruplicate sample wells are averaged and divided by the average of the “time 0” values. […]
# KB-V1 cells = assay: MTS cytotoxicity test with KB-V1 cells (very high P-glycoprotein); settings: Homo sapiens, KB-V1, read-out: IC50 (nM) KB VI
# Source text: as §1, §2, §3
# HL-60/ADR cells = assay: MTS cytotoxicity test with HL-60/ADR cells (MRP1); settings: Homo sapiens, HL60/ADR, read-out: IC50 (nM) HL-60/ADR
# Source text: as §1, §2, §3
# KB cells = assay: MTS cytotoxicity test with KB cells; settings: Homo sapiens, read-out: IC50 (nM) KB
# Source text: as §1, §2, §3
# KB-8-5 cells = assay: MTS cytotoxicity test with KB-8-5 cells (moderate P-glycoprotein); settings: Homo sapiens, read-out: IC50 (nM) KB 8.5
# Source text: as §1, §2, §3
# HL-60 cells = assay: MTS cytotoxicity test with HL-60 cells; settings: Homo sapiens, HL-60, read-out: IC50 (nM) HL-60
# Source text: as §1, §2, §3
# S1-M1 cells = assay: MTS cytotoxicity test with S1-M1 cells (MXR); settings: Homo sapiens, read-out: IC50 (nM) S1-M1
# Source text: as §1, §2, §3
structure (smiles),measurement,setting,value
"COc1cc2c(c(OC)c1OC)-c1ccc(OC)c(=O)cc1[C@@H](NC(C)=O)CC2 [Colchicine, reference compound]",IC50,S1 cells,37 nM
same,IC50,KB-V1 cells,1200 nM
same,IC50,HL-60/ADR cells,182 nM
same,IC50,KB cells,13 nM
same,IC50,KB-8-5 cells,61 nM
same,IC50,HL-60 cells,21 nM
same,IC50,S1-M1 cells,109 nM
